Test results: patent US20110217240A1, “IMAGING NEUROLEPTIC COMPOUNDS” (priority 2008, published 2011)
For at least one compound, name, drawing or mass did not settle the structure.

Test system: apomorphine-induced dopaminergic neurotransmission
Assay: BOLD fMRI of neuronal/glial activity in conscious rats pre-treated with an antipsychotic and challenged with apomorphine
Type: in vivo
Conditions: then apomorphine 20 μg/10 μl ICV, conscious rat
Excerpt: To image the brain activity of live rats (Charles River Laboratories, Wilmington, Mass.), the rats were anesthetized with 2-3% isoflurane (Abbott Laboratories, North Chicago, Ill.). Nine (9) rats were used for each experimental condition. A topical anesthetic of 10% lidocaine gel was applied to the skin and soft tissue around the ear canals and over the bridge of the nose. A plastic semi-circular headpiece with blunted ear supports that fit into the ear canals was positioned over the ears. The head was placed into a cylindrical head holder with the rat's canines secured over a bite bar and ears positioned inside the head holder with adjustable screws fitted into lateral sleeves. An adjustable, receive-only surface coil built into the head holder was pressed firmly on the head and locked into place. The body of the rat was placed into a body restrainer. The body restrainer “floats” down the center of the chassis connecting at the front and rear end-plates and buffered by rubber gaskets. The head piece locks into a mounting post on the front of the chassis. This design isolates all of the body movements from the head restrainer and minimizes motion artifact. Once the rat was positioned in the body holder, a transmit-only volume coil was slid over the head restrainer and locked into position.
When the rats were fully conscious, the restraining unit was placed into a black opaque tube mock scanner with a tape-recording of an MRI pulse sequence. This acclimation protocol lasted for 60 minutes in order to simulate the bore of the magnet and the imaging protocol. This procedure was repeated every other day for four days.
Experiments were conducted in a Bruker Biospec 4.7-T/40-cm horizontal magnet (Oxford Instrument, Oxford, U.K.) equipped with a Biospec Bruker console (Bruker, Billerica, Mass., U.S.A.) and a 20 G/cm magnetic field gradient insert (internal diameter=12 cm) capable of a 120 μs rise time (Bruker). Radiofrequency (RF) signals were sent and received with the dual coil electronics built into the animal restrainer (Ludwig et al., 2004, J. Neurosci. Methods 132(2):125-35). The volume coil for transmitting RF signal features an 8-element microstrip line configuration in conjunction with an outer copper shield. The arch-shaped geometry of the receiving surface coil provides excellent coverage and high signal-to-noise. To prevent mutual coil interference, the volume and surface coils were actively tuned and detuned.
Functional images were acquired using a multi-slice fast spin echo sequence. […]

[1] = antipsychotic pre-treatment i.p. (chlorpromazine, clozapine, olanzapine 5 mg/kg; haloperidol 1 mg/kg)

## CN1CCN(C2=Nc3cc(Cl)ccc3Nc3ccccc32)CC1 [clozapine]
Antipsychotic pre-treatment i.p. (chlorpromazine, clozapine, olanzapine 5 mg/kg)
  neuronal/glial activity in the dorsal striatum: remained active
[1]
  neuronal/glial activity in the anterior thalamic nuclei: pronounced reduction
  neuronal/glial activity in the pituitary gland: pronounced reduction
pre-treatment 5 mg/kg i.p.
  neuronal/glial activity throughout the hippocampus: not
